Test results as given in PubChem BioAssay AID651640 (Broad Institute, 2012).
Out of some 350,000 compounds screened, about 6,000 (1.7%) were called active. Inconclusive results, whose numbers are uncertain, are shown with a selection of clear calls. No stated cut-off is given here; in the data, active means CPE inhibition above about 20% (passing the limit was not always enough); inconclusive means no clear call, values can overlap the other calls; tested in BHK-21 cells.

assay: protection of cells from dengue 2 killing – plate reader, single concentration, primary screen (AID 651640); conditions: DENV2-infected cells, cytopathic effect rescue, at 9.99 µM, hits give high values;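 further: 0% = median of neutral control wells and 100% = median of positive control wells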

| SMILES | CPE inhibition |
| --- | --- |
| CC1CCCC(C)N1C(=O)CSc1nnc(COc2ccc(F)cc2)o1 (configuration not stated) | inconclusive: 28.6% |
| CC(C)NC(=O)N(C)C[C@H]1Oc2cc(C#Cc3cccc(F)c3)ccc2S(=O)(=O)N([C@H](C)CO)C[C@@H]1C | inconclusive: 22.7% |
| O=C(C[C@@H]1C=C[C@@H](NC(=O)c2ccccc2)[C@@H](CO)O1)NCc1ccncn1 | inactive: -4.69% |
| COc1ccc(CNC(=O)Cn2ncn3c(cc4ccccc43)c2=O)cc1 | inactive: -2.19% |
| O=C(Nc1nnc(-c2ccco2)o1)c1cccc(N2C(=O)CCC2=O)c1 | inactive: 12.9% |
| C/C=C/c1ccc([C@H]2[C@@H](CO)N(C(=O)c3cnccn3)C23CN(C(=O)C2CC2)C3)cc1 | inactive: -0.286% |
| CCC(C)[C@H]1COCCS(=O)(=O)N1Cc1ccc(C)cc1 (some centres not stated) | inconclusive: 36.6% |
| CC1CCN(C(=O)c2ccc(-c3ccccc3Cl)o2)CC1 | inconclusive: 22.5% |
| CN(C)CC(=O)N1[C@H](C#N)[C@H](c2ccc(C#CC3CCCC3)cc2)[C@@H]1CO | active: 31% |
| C[C@H](CO)N1C[C@H](C)[C@H](CN(C)C(=O)Nc2ccc(F)cc2)Oc2c(NC(=O)Nc3ccccc3)cccc2C1=O | inconclusive: 21% |
| C[C@H](CO)N1C[C@H](C)[C@@H](CN(C)C(=O)CN(C)C)Oc2ncc(-c3ccccc3F)cc2C1=O | inactive: 11.4% |
| CN1CCN(C(=O)C2CCCN(S(=O)(=O)c3ccc(Br)cc3)C2)CC1 (configuration not stated) | inconclusive: 26% |
| COc1cc(OC)cc(C(=O)Nc2ccc(N(C)C)c3ccccc23)c1 | inactive: -2.52% |
| CC(NC(=O)c1sc2cc([N+](=O)[O-])ccc2c1Cl)C(C)(C)C (configuration not stated) | inconclusive: 23.6% |
| O=[N+]([O-])c1ccccc1S(=O)(=O)Nc1ccc(S(=O)(=O)N2CCOCC2)cc1 | active: 31.4% |
| CN1c2ccc(C3=CCCCC3)cc2[C@H]2[C@H](CCN2C(=O)NC2CCCC2)[C@@H]1CO | inconclusive: 22.4% |
| CC(Cc1ccccc1)NC(=O)C1CCCNC1=O (configuration not stated) | inactive: -4.32% |
| CC1(C)Cc2c(cnn2-c2cccc(F)c2)C(NC(=O)c2csnn2)C1 (configuration not stated) | inconclusive: 25.6% |
| CCC(=O)N(C)C[C@H]1Oc2cc(C#CCOC)ccc2S(=O)(=O)N([C@@H](C)CO)C[C@@H]1C | inconclusive: 69.9% |
| CCC(=O)N1[C@@H]2c3ccc(-c4ccccc4F)c(=O)n3C[C@H]1[C@H](CO)[C@H]2C(=O)NC1CCCC1 | inconclusive: 24.1% |
| COc1cc(NC(=O)c2cccs2)c(OC)cc1NC(=O)CCC(=O)Nc1ccc(C)cc1 | inconclusive: 20.2% |
| COC(=O)c1ccc(CN2CC(=O)N3[C@@H](CO)[C@H](c4ccc(-c5cccnc5)cc4)[C@@H]3C2)cc1 | inconclusive: 27.1% |
| O=c1c2ccccc2nc(COc2ccccc2)n1/N=C/c1cn[nH]c1-c1ccccc1 | inconclusive: 35.4% |
| COc1ccc(S(=O)(=O)Nc2ccc3c(c2)CC(=O)N([C@@H](C)CO)C[C@@H](C)[C@@H](CN(C)S(=O)(=O)c2ccccc2)O3)cc1 | inconclusive: 33.3% |

Compounds shown so far containing a Cl atom (two):

| SMILES | CPE inhibition |
| --- | --- |
| CC1CCN(C(=O)c2ccc(-c3ccccc3Cl)o2)CC1 | inconclusive: 22.5% |
| CC(NC(=O)c1sc2cc([N+](=O)[O-])ccc2c1Cl)C(C)(C)C (configuration not stated) | inconclusive: 23.6% |

Additional results.

| SMILES | CPE inhibition |
| --- | --- |
| CCC(=O)N1CC2(C1)CN(C(=O)NC1CCCC1)[C@H](CO)c1c2c2ccc(OC)cc2n1C | inactive: -2.15% |
| O=c1cc(-c2ccccc2)nc2c(Cl)cc(Cl)cn12 | inconclusive: 22.1% |
| O=C(C1CCCC1)N1CCCCN2[C@H](CO)[C@@H](c3ccc(C#CC4CC4)cc3)[C@H]2C1 | inactive: 3.05% |
| C[C@@H]1CCCCO[C@H](CN(C)C(=O)C2CCCCC2)[C@H](C)CN([C@@H](C)CO)C(=O)c2cc(NC(=O)Nc3ccc(F)cc3)ccc2O1 | inactive: 5.35% |
| CC1=C(C(=O)OCc2ccccc2)C(c2ccccc2OS(=O)(=O)c2ccc([N+](=O)[O-])cc2)NC(=O)N1CCCC(=O)O (configuration not stated) | inconclusive: 51.8% |
| Cc1c(Cl)cccc1-n1cnc(=O)c2ccccc21 | inconclusive: 36.7% |
| COc1ccccc1C(=O)N1C[C@H]2[C@@H](c3ccccc31)[C@H](CO)N2Cc1ccc(F)cc1 | inactive: -7.97% |
| CCC(=O)N1CC2(CN(Cc3ccccc3Cl)C2)c2c([nH]c3cc(OC)ccc23)[C@@H]1CO | inactive: 5.11% |
| COc1ccc(N2C(=O)CC(N(CCc3ccccc3)C(=O)/C=C/C(=O)O)C2=O)cc1 (configuration not stated) | inactive: -2.7% |
| O=S(=O)(N[C@@H]1CC[C@@H](CCn2cc(C3(O)CCCC3)nn2)O[C@H]1CO)c1ccc(Cl)cc1 | inactive: 6.55% |
| COc1cccc(NC(=O)Nc2ccc3c(c2)C(=O)N(C)[C@H]2CC[C@H](CC(=O)O)O[C@H]2CO3)c1 | inactive: -4.02% |
| Cc1cccc(C(=O)OCC(=O)NCc2ccc(Cl)cc2)c1 | active: 29.3% |
| CC(=O)C(C(c1ccccc1)N1CCOCC1)N1CCOCC1 (configuration not stated) | inconclusive: 48.9% |
| CCCNC(=O)N1[C@H](CO)[C@H](c2ccccc2)[C@H]1CNC(C)=O | inactive: -10.8% |
| O=C(CSc1nc(=O)n2ccccc2n1)N1N=C(c2cccs2)CC1c1ccc(F)cc1 (configuration not stated) | active: 59.5% |
| COCC(=O)N1[C@H](CO)[C@H]2c3ccccc3N(C(=O)c3cccc(OC)c3)C[C@H]21 | active: 54.9% |
| Cc1noc(C)c1NC(=O)N(C)C[C@H]1OCc2cn(nn2)CCCC(=O)N([C@H](C)CO)C[C@@H]1C | inconclusive: 29.5% |
| Cc1nc2sc(C(c3cccs3)N3CCOCC3)c(O)n2n1 (configuration not stated) | inconclusive: 38.3% |
| CCC(=O)Nc1ccc2c(c1)OC[C@@H](C)N(CC1CCOCC1)C[C@@H](C)[C@H](OC)CN(C)C2=O | inconclusive: 21.4% |
| CCCCCn1nc(C(=O)N(CCOC)c2c(N)n(CCCC)c(=O)[nH]c2=O)c2ccccc2c1=O | inconclusive: 23% |
| CCOC(=O)C1=C(c2ccccc2)NC(=O)NC1c1cc(OCC)c(O)c([N+](=O)[O-])c1 (configuration not stated) | inconclusive: 22.3% |
| CC(=O)Nc1cccc(OCCCNS(=O)(=O)c2ccc(C#N)cc2)c1 | inconclusive: 58.6% |
| Fc1cccc(Nc2nc3ccccc3n3cnnc23)c1 | inconclusive: 25.4% |
